Test results reported in patent US20260015346A1, “GLUTATHIONE PEROXIDASE 4 (GPX4) INHIBITORS FOR THE TREATMENT OF CANCER” (Ferro Therapeutics, Inc., priority 2022, published 2026).
At least one read-out could not be matched to a standard name with certainty.

Tested on: 786-O (renal cell carcinoma)
Experiment: Cell viability (Alamar Blue), 24-hour 2D viability, 786-O cells
Format: cell-based, human
Settings: 786-0 cells, 10% FBS + 2 μM Fer-1, 24-hour 2D viability
Description: A cell viability assay is performed to assess the potency of the compounds in human cancer cell lines 786-O (renal cell carcinoma), SJSA-1 (osteosarcoma), and/or A431 (epidermoid carcinoma). Additional cell lines, such as pancreatic cancer cell lines (e.g., Panc 02.13, BxPC-3, Panc 12, Panc 02.03, Panc 6.03, PSN-1, HPAC, and Capan-1), prostate cancer cell lines (e.g., PC-3, DU145, 22Rv1, NCI-H660, BPH1, LNCaP, BM-1604, and MDA PCa 2b), etc., can be tested in a similar method.
Cells (SJSA-1, 786-0 and/or A431) are seeded (5000 cells/100 μL/well) in 96-well tissue culture plate and incubated at 37° C./5% CO2 for 16-24 hours. The cells are then treated with compounds (25 μL of 5×). The compound concentrations are 10-0.0005 μM prepared in 3-fold serial dilutions with final DMSO concentration of 1%. The plates are then incubated for 24 h at 37° C./5% CO2 in a moist environment. Then Alamar Blue™ reagent (final concentration 1×-12.5 μL) is added to each well and incubated for 1.5 hours at 37° C./5% CO2. The plates are read on fluorescence reader at 540 nanometer (nm) excitation and 590 nm emission wavelengths. The IC50 values are subsequently determined using a sigmoidal dose-response curve (variable slope) in GraphPad Prism® 5 software.

Compound	EC50 [nM]
C#Cc1nc(C(=O)N2C(c3ccc(F)cn3)c3[nH]c4ccccc4c3C[C@@H]2c2nc(C)no2)cs1 (single isomer, unassigned) [Compound 10aA]	7530
C#Cc1nc(C(=O)N2C(c3ccc(F)cn3)c3[nH]c4ccccc4c3C[C@@H]2c2nc(C)no2)cs1 (single isomer, unassigned) [Compound 10aB]	5890
C#Cc1nc(C(=O)N2[C@@H](CCCC)Cc3cc(OC)ccc3[C@@H]2c2ccc(C#N)cc2)cs1 [Compound 2a, 4-((1S,3S)-3-butyl-2-(2-ethynylthiazole-4-carbonyl)-6-methoxy-1,2,3,4-tetrahydroisoquinolin-1-yl)benzonitrile]	5000
C#Cc1nc(C(=O)N2C(c3ccc4ncccc4c3)c3ccc(OC)cc3C[C@@H]2CCCC)cs1 (some centres unmarked) [Compound 3a]	3690
C#Cc1nc(C(=O)N2[C@@H](CCCC)Cc3c([nH]c4ccccc34)[C@@H]2c2ccc(NC3CCC3)cc2)cs1 [Compound 4a, ((1S,3S)-3-butyl-1-(4-(cyclobutylamino)phenyl)-1,3,4,9-tetrahydro-2H-pyrido[3,4-b]indol-2-yl)(2-ethynylthiazol-4-yl)methanone]	> 10000
C#Cc1nc(C(=O)N2[C@@H](CCCC)Cc3cc(OC[C@@H]4CCCN4)ccc3[C@@H]2c2ccc(NC34CC5CC(CC(C5)C3)C4)cc2)cs1 [Compound 5a]	3680
C#Cc1nc(C(=O)N2[C@@H](CCCC)Cc3c([nH]c4ccc(CCCO)cc34)[C@@H]2c2ccc(NC34CC5CC(CC(C5)C3)C4)cc2)cs1 [Compound 7a]	> 10000
C#Cc1nc(C(=O)N2[C@@H](CCCC)Cc3cc(NC(=O)[C@H]4CCCN4C)ccc3[C@@H]2c2ccc(NC34CC5CC(CC(C5)C3)C4)cc2)cs1 [Compound 8a]	> 10000
C#Cc1nc(C(=O)N2C(c3ccc(S(=O)(=O)NC4CCC4)cc3)c3ccc(OC)cc3C[C@@H]2CCCC)cs1 (some centres unmarked) [Compound 9a]	> 10000
C#Cc1nc(C(=O)N2[C@@H](CCCC)Cc3c([nH]c4ccccc34)[C@@H]2c2ccc(NC34CC5CC(CC(C5)C3)C4)cc2)cs1 [Compound 11a]	> 10000
C#Cc1nc(C(=O)N2[C@@H](CCCC)Cc3c([nH]c4ccccc34)C23CNC3)cs1 [Compound 12a]	8950
C#Cc1nc(C(=O)N2[C@@H](CCCC)Cc3cc(OC[C@H]4CCCN4C)ccc3[C@@H]2c2ccc(NC34CC5CC(CC(C5)C3)C4)cc2)cs1 [Compound 13a]	4830
C#Cc1nc(C(=O)N2[C@@H](CCCC)Cc3cc(OC)ccc3[C@@H]2c2ccc(S(=O)(=O)NC3CCC3)nc2)cs1 [Compound 15a]	4140
C#Cc1nc(C(=O)N2[C@@H](CCCC)Cc3cc(OC)ccc3[C@@H]2c2ccc(C(=O)NC3CCC3)cc2)cs1 [Compound 16a]	> 10000
C#Cc1nc(C(=O)N2[C@@H](CCCC)Cc3cc(OC)ccc3[C@@H]2c2ccc(C(=O)NC3CCC3)cn2)cs1 [Compound 18a]	8280
C#Cc1nc(C(=O)N2[C@@H](c3ccc(F)cc3)c3[nH]c4ccccc4c3C[C@@H]2c2nc(C)no2)cs1 [Compound 20a]	> 10000
C#Cc1nc(C(=O)N2[C@@H](CCCC)Cc3cc(OC)ccc3[C@@H]2c2ccc(S(=O)(=O)N(C)C3CCC3)cc2)cs1 [Compound 21a]	> 10000
C#Cc1nc(C(=O)N2[C@@H](CCCC)Cc3c([nH]c4ccccc34)C23CCN(C)CC3)cs1 [Compound 22a]	8490
C#Cc1ncc(C(=O)N2[C@@H](CCCC)Cc3cc(OC)ccc3[C@@H]2c2ccc(NC34CC5CC(CC(C5)C3)C4)cc2)s1 [Compound 23a]	> 10000
C#Cc1csc(C(=O)N2[C@@H](CCCC)Cc3cc(OC)ccc3[C@@H]2c2ccc(NC34CC5CC(CC(C5)C3)C4)cc2)n1 [Compound 24a]	> 10000
C#Cc1nc(C(=O)N2[C@@H](CCCC)Cc3cc(OC)ccc3[C@@H]2c2ccc(NC34CC5CC(CC(C5)C3)C4)cc2)co1 [Compound 26a]	8760
C#Cc1nc(C(=O)N2[C@@H](CCCC)Cc3cc(OC)ccc3[C@@H]2c2ccc(NC34CC5CC(CC(C5)C3)C4)cc2)cn1C [Compound 27a]	> 10000
C#Cc1nccc(C(=O)N2[C@@H](CCCC)Cc3cc(OC)ccc3[C@@H]2c2ccc(NC34CC5CC(CC(C5)C3)C4)cc2)n1 [Compound 28a]	2100
